Test results from PubChem BioAssay AID248 (DTP/NCI, 2004).
The list does not hold the whole screen: it gathers tests that were run many times, whatever their T/C, doses with no T/C, and many T/C values between a quarter and a half above the control. Other doses and runs of a compound stand elsewhere. T/C gives the treated animals as a percentage of the vehicle group. Some doses have a count of surviving animals in place of a T/C: the source files T/C as zero there, which appears to mark a toxic dose or a test without result, not a measured value. Some doses without a T/C left all or most animals alive at the check, yet need not have been tolerated: the source hardly ever lists a survival T/C far under the control, and the zero likely stands for such cases as well. Counts of survivors are from the toxicity check (mostly the fifth day) where no day follows; animals may have died later. Schedule codes are those of the source, taken here to give the interval after Q, in days (D) or hours (H), and the number of doses after X. Counts like (3×) say how often a value occurs here. Where survival is the endpoint, this PubChem deposit counts one and a half times the control or more as active, and values a quarter to a half above the control carry no call in these data; other NCI protocols may use other cut-offs.

System: L1210 leukemia ip in BDF1 mice, survival T/C
Assay: NCI In Vivo Anticancer Drug Screen. Data for tumor model L1210 Leukemia (intraperitoneal) in B6D2F1 (BDF1) mice
Conditions: T/C endpoint: mean survival time, higher T/C = longer survival
[1] = dose: 100.0 mg/kg/injection, schedule: Q04DX003 (ip), vehicle: saline with Tween-80
[2] = dose: 200.0 mg/kg/injection, schedule: Q04DX003 (ip), vehicle: saline with Tween-80
[3] = dose: 400.0 mg/kg/injection, schedule: Q04DX003 (ip), vehicle: saline with Tween-80

For `CCCCCCCCCCCC[n+]1cccc2ccccc21`, the survivor count (dose: 0.35 mg/kg/injection, schedule: Q01DX009 (ip), vehicle: saline) was 6 of 6, the survivor count (dose: 1.4 mg/kg/injection, schedule: Q01DX009 (ip), vehicle: saline) was 0 of 6 and the survivor count (dose: 2.0 mg/kg/injection, schedule: Q01DX001 (ip), vehicle: saline) was 2 of 6. The survivor count (dose: 2.09 mg/kg/injection, schedule: Q01DX009 (ip), vehicle: saline) was 3 of 6, the survivor count (dose: 2.2 mg/kg/injection, schedule: Q04DX003 (ip), vehicle: saline) was 0 of 6 and the survivor count (dose: 3.18 mg/kg/injection, schedule: Q01DX009 (ip), vehicle: saline) was 0 of 6. For the same compound, the survivor count (dose: 3.3 mg/kg/injection, schedule: Q04DX003 (ip), vehicle: saline) was 3 of 6, the survivor count (dose: 4.0 mg/kg/injection, schedule: Q01DX015 (ip), vehicle: carboxymethylcellulose (CMC)) was 4 of 6 and the survivor count (dose: 4.77 mg/kg/injection, schedule: Q01DX009 (ip), vehicle: saline) was 2 of 6. For the same compound, the survivor count (dose: 8.0 mg/kg/injection, schedule: Q01DX015 (ip), vehicle: carboxymethylcellulose (CMC)) was 3 of 6.

With `O=C(/C(=N\Nc1ccc([N+](=O)[O-])cc1)c1ccccc1)c1ccccc1` the survivor count (dose: 100.0 mg/kg/injection, schedule: Q01DX009 (ip), vehicle: saline with Tween-80) was 6 of 6, the survivor count (dose: 200.0 mg/kg/injection, schedule: Q01DX009 (ip), vehicle: saline with Tween-80) was 6 of 6 and the survivor count (dose: 400.0 mg/kg/injection, schedule: Q01DX009 (ip), vehicle: saline with Tween-80) was 5 of 6.

`[N-]=[N+]=NCC(=O)NCc1cnccn1` was tested, and the survivor count (dose: 100.0 mg/kg/injection, schedule: Q01DX009 (ip), vehicle: saline) was 0 of 6, the survivor count (dose: 200.0 mg/kg/injection, schedule: Q01DX009 (ip), vehicle: saline) was 3 of 6 and the survivor count (dose: 400.0 mg/kg/injection, schedule: Q01DX009 (ip), vehicle: saline) was 0 of 6.

`CCOCc1cc([N+](=O)[O-])cc([N+](=O)[O-])c1O` was tested, and the T/C (dose: 12.5 mg/kg/injection, schedule: Q01DX009 (ip), vehicle: saline with Tween-80) was 125 % of control, the survivor count [1] was 4 of 6 and the survivor count [2] was 0 of 6. The survivor count [3] was 0 of 6.

In the case of `Nc1ncnc2c1nc(N)n2C1OC(CO)C(O)C1O` (stereo unspecified), the survivor count (dose: 400.0 mg/kg/injection, schedule: Q01DX001 (ip), vehicle: saline) is reported as 0 of 6.

In the case of `CC1(C)N=C(N)N=C(N)N1c1ccc(OCCNS(=O)(=O)c2ccc(S(=O)(=O)F)cc2)c(Cl)c1`, the survivor count [2] is reported as 5 of 6 and the survivor count [3] is reported as 0 of 6.

In the case of `O=C(O)C1CCC2CCCCC2[N-]1.O=C(O)C1CCC2CCCCC2[N-]1.[Cu+2]` (stereo unspecified), the survivor count (dose: 100.0 mg/kg/injection, schedule: Q04DX003 (ip), vehicle: saline) is reported as 3 of 6, the survivor count (dose: 200.0 mg/kg/injection, schedule: Q04DX003 (ip), vehicle: saline) is reported as 0 of 6 and the survivor count (dose: 400.0 mg/kg/injection, schedule: Q04DX003 (ip), vehicle: saline) is reported as 0 of 6.

With `C=CCN(CC=C)c1ccc(N(CC)CC)cc1` the survivor count (dose: 400.0 mg/kg/injection, schedule: Q01DX009 (ip), vehicle: Klucel (hydroxypropylcellulose) (HPC)) was 3 of 6.

For `CCCCOCCCNC1=C(Cl)C(=O)c2ccccc2C1=O`, the survivor count (dose: 100.0 mg/kg/injection, schedule: Q01DX001 (ip), vehicle: carboxymethylcellulose (CMC)) was 0 of 4, the survivor count (dose: 200.0 mg/kg/injection, schedule: Q01DX001 (ip), vehicle: carboxymethylcellulose (CMC)) was 0 of 4 and the survivor count (dose: 400.0 mg/kg/injection, schedule: Q01DX001 (ip), vehicle: carboxymethylcellulose (CMC)) was 0 of 4.

With `CCC(=CCC1=C(O)c2ccccc2C(=O)C1=O)CC` the survivor count (dose: 400.0 mg/kg/injection, schedule: Q01DX001 (ip), vehicle: water) was 0 of 6.

With `O=[As](O)(CC(O)COc1ccc(Cl)cc1Cl)c1cccc(Cl)c1` (stereo unspecified) the survivor count (dose: 25.0 mg/kg/injection, schedule: Q04DX003 (ip), vehicle: saline with Tween-80) was 0 of 6, the survivor count (dose: 50.0 mg/kg/injection, schedule: Q04DX003 (ip), vehicle: saline with Tween-80) was 0 of 6 and the survivor count [1] was 0 of 6 (2×). For the same compound, the survivor count [2] was 0 of 6 and the survivor count [3] was 0 of 6.
